At least one structure is not confirmed: it was looked up by name or label, or the drawing left a doubt.
System: mice challenged with LPS
Test: In vivo LPS-induced septic shock
Design: species or system mouse
Protocol: FIGS. 4A-G. Class I/IIb HDAC inhibition protects against systemic inflammation • (A) Time line of drug treatment and LPS priming and challenge. Mice were intraperitoneally injected, or not, with two doses of ricolinostat or GSK484 and were then intraperitoneally administered with two doses of LPS (−5 h, 1 mg/kg and 0 h, 2 mg/kg) to induce lethal sepsis. Peritoneal lavage and blood were collected 2 h after the LPS challenge. • (B) Body temperature was measured 2 h post challenge. • (C) Concentration of platelets in the blood was measured by cytofluorimetry. • (D) NETosis was measured as neutrophils (Ly6G+/CD11b+) positive for citrullinated histone H3 staining in the peritoneal lavage. • (E-G) Serum cytokines were measured by ELISA. […] Statistics were calculated using one-way ANOVA (*p<0.05; ** p<0.01; *** p<0.001; ****p<0.0001; n.s., not significant). n=15 for each group except the GSK484-treated group (n=10). […]
FIGS. 8A-F. Class I/IIb HDAC inhibition protects against systemic inflammation. • A-C) Neutrophils numbers and percentage were calculated in blood (A, B) and peritoneal lavage (C) of mice challenged, or not, with LPS. […] Statistics were calculated using One-way ANOVA (*P<0.05; **P<0.01; ***P<0.001; ****P<0.0001; n.s., not significant). […]
Alternatively, neutrophils positive for citrullinated histone H3 were quantified by cytofluorimetry. […]

C[C@@H]1C[C@H]2[C@@H]3CCC4=CC(=O)C=C[C@]4(C)[C@@]3(F)[C@@H](O)C[C@]2(C)[C@@]1(O)C(=O)CO [dexamethasone]
platelet counts in the blood (2 h post LPS challenge, compared with LPS alone, FIGS. 4C, 8D): did not observe a significant difference
pro-inflammatory cytokine production (serum, ELISA), comparison with dexamethasone (dexamethasone 10 mg/kg/dose, ricolinostat 30 mg/kg/dose, FIGS. 8E and 8F): efficiently reduced

Source: US20240366594A1, “Small Molecule Inhibitors of Formation of Neutrophil-Derived Extracellular Traps (NETosis) and Uses Thereof” (The Brigham and Women's Hospital, Inc., priority 2021, published 2024)
